Assay results: patent publication US20080226682A1, “Immunoactive Compositions for Improved Oral Delivery of Vaccines and Therapeutic Agents” (PerOs Systems Technologies, Inc., priority 2007, published 2008)
For at least one compound, name, drawing or mass did not settle the structure. Some results were stated once for a whole list of compounds, not compound by compound.

Key:
[1] = tested on: LPS induced NO generation in RAW264.7 cells; assay: PUFA pretreatment, LPS induced NO generation in RAW264.7; conditions: FIG. 8
[2] = tested on: LPS-induced NO generation in RAW264.7 cells; assay: LPS-induced NO generation in RAW264.7 cells (1 hour pretreatment with isoflavones or saponins); type: cell-based, murine; conditions: 100 μg/ml (highest tested); FIG. 11
Method: In yet another exemplary embodiment, the ability of isoflavones to modulate the production of LPS-induced NO generation in RAW264.7 cells was investigated. […] Cells were incubated with isoflavones for 1 hour at 37±2° C.
Cells were incubated with saponins 1 hour at 37±2° C.

SMILES | immunomodulatory activity [1] | inhibition of LPS-induced NO production [2]
CC/C=C\C/C=C\C/C=C\C/C=C\C/C=C\CCCCCC(=O)O [DPA, docosapentaenoic acid] | high immunomodulatory activity | –
CC/C=C\C/C=C\C/C=C\C/C=C\C/C=C\CCCC(=O)O [EPA, eicosapentaenoic acid] | high immunomodulatory activity | –
CC1(C)C[C@@H](O)[C@]2(C)CC[C@]3(C)C(=CC[C@@H]4[C@@]5(C)CC[C@H](O)[C@](C)(CO)[C@@H]5CC[C@]43C)[C@@H]2C1 [sapogenol B, Sapogenol B] | – | 15-25%
